Not every detail of the peptide structures is certain; ends, links or a residue may be inferred.
Tests used:
NO-system [1] = assay: NO-system: L-NAME and L-arginine effects; assay type: in vivo
[2] = Skin wounds in diabetic animals; assay type: in vivo; details: given topically
[3] = water immersion test, yeast-induced; cited from earlier work
Effect on wound healing = assay: Effect on wound healing; design: species or system rats; details: rat, in vivo
[4] = Blood pressure regulation; assay type: in vivo, rats
somatosensory neurons = assay: Capsaicin damage of somatosensory neurons; assay type: in vivo; details: high dose of capsaicin; bepecin 10 ng to 10 μg/kg, orally or locally
[5] = Succinylcholine injection into quadriceps; assay type: in vivo; details: succinylcholine 0.2 mg/kg; bepecin before or after
[6] = Morphine and anaesthetics; assay type: in vivo, mice
[7] = CaCl2 overdose hypercalcemia; assay type: in vivo, rats; details: CaCl2 200 and 400 mg/kg i.p.; bepecin 10 μg/kg i.p.
[8] = cited from earlier work
[9] = Isoprenaline myocardial infarction and methyldigoxin arrhythmias; assay type: in vivo; details: methyldigoxin 6 mg/kg i.v. or i.p.; bepecin 10 ng to 10 μg/kg, parenterally or orally
[10] = Side effects of cyclophosphamide cytostatic; details: in vivo
macrophages = assay: Immunomodulation, activity of macrophages; assay type: in vivo, mice; details: 50 μg or 100 μg/kg i.p. daily for 3 consecutive days
[11] = Transected sciatic nerve healing; assay type: in vivo, rats; details: 10 μg/kg, 10 ng/kg, intraperitoneally/intragastrically/locally
[12] = Cuprizone model for multiple sclerosis; assay type: in vivo, Wistar rats; details: bepecin 10 μg/kg or 10 ng/kg in drinking water and intragastrically
Pain models = assay type: in vivo, rats; details: transected sciatic nerve, without and with anastomosis
[13] = test system: mitogen-activated protein kinase (MAPK); assay: Western blot analysis in melanoma cells; assay type: cell-based, human
[14] = cited from earlier work; remark: listed apart in the source
[15] = Abdominal aorta anastomosis, thrombus formation; assay type: in vivo, rats
Treadmill running tests = assay type: in vivo; details: normal rats
[16] = Bleeding and thrombocytopenia after amputation; assay type: in vivo; details: rats after amputation; also aspirin-, warfarin-, heparin-prolonged bleeding; 10 μg/kg, 10 ng/kg i.p., i.v. or i.g.
Description: Bepecin was administered intraperitoneally, intravenously or intragastrically (10 μg/kg, 10 ng/kg body weight).

Short bowel syndrome = assay type: in vivo; details: short bowel syndrome rats; 10 ng/kg to 10 μg/kg i.m. or p.o.
[17] = Corticosteroid-failed wound healing; assay type: in vivo, mice and rats; details: 6-alpha-methylprednisolone 1 and 10 mg/kg i.p.; bepecin 10 ng to 10 μg/kg parenterally, orally or locally
Adjuvant arthritis = assay type: in vivo, rats; details: well-developed adjuvant arthritis
bull's sperm = assay: Bull's sperm cryopreservation, motility; assay type: cell-based
[18] = Anaphylactoid reaction induced by dextran and/or egg white; assay type: in vivo, rats, mouse
[19] = Collateral vessel presentation after femoral artery removal; assay type: in vivo, rats; details: 5-10 min after removal of femoral artery part; local 1 min bath (bepecin 10 μg/kg, L-arginine 100 mg/kg, L-NAME 5 mg/kg)
Text: Bepecin has a particular beneficial effect after large blood vessel removal. Unlike L-NAME and L-arginine, bepecin rapidly bridges defect between the stumps of the vessel, thus even in the case of the worst scenario, rapidly reorganizing blood supply. Part of femoral artery in rats (between a. epigastrica caudalis and a. femoralis circumflexa lateralis) was removed in order to investigate collateral vessel presentation within vascular defect following formation of critical size vascular defect. Collateral vessel presentation within vascular defect was assessed according to the method described for microangiographic assessment in Cardiovasc Res. 1997 September; 35(3): 547-52. Thermographic imaging was performed using an infrared camera.

Sphincter action = assay type: in vivo, rats; details: 10 ng/kg to 10 μg/kg, parenterally or orally
[20] = Experimental ulcer models of gastrointestinal tract; assay type: in vivo; details: 10 ng to 10 μg/kg (i.p., i.g.)
Adhesion formation = assay type: in vivo, rats; details: 10 ng to 10 μg/kg parenterally, orally or locally
[21] = Alcohol acute and chronic intoxication; assay type: in vivo; details: 10 ng to 10 μg/kg, parenterally or orally
[22] = Myastenic syndrome by magnesium sulfate overdose; assay type: in vivo, rats; details: magnesium sulfate 500 mg/kg i.p.; bepecin 10 μg/kg and 10 ng/kg i.p.
NO-system [23] = assay: In vitro NO-release
[24] = test system: Feline leukemia virus (FeLV); assay: Cats ill with feline leukemia; assay type: in vivo

## H-GEPPPGKPADDAGLV-OH [Bepecin]
NO-system [1]; 10 ng to 10 μg/kg, parenterally or orally
  Lesions caused by the NO-blocker L-NAME: prevents aggravation of lesions caused by the NO-blocker L-NAME
NO-system [1]; effects of L-arginine and L-NAME
  Blood pressure disorders caused by NO: normalizes blood pressure disorders
[2]
  Healing of skin wounds in diabetic animals: significantly increase healing of skin wounds in diabetic animals
[3]
  Body temperature: acts against temperature decrease (i.e. water immersion test) and increase (yeast-induced)
Effect on wound healing
  Healing of wounds, burns, anastomoses, fistulas, transections, bone fractures, corneal wounds: markedly increases healing
[4]; Goldblatt hypertension, high fructose or salt diet, L-NAME, KCl
  Blood pressure in hypertensive animals: decreases the increased blood pressure in hypertensive animals
[4]; chronic heart failure, doxorubicin-induced hypotension
  Blood pressure in hypotension: normalizes blood pressure in rats with chronic heart failure
[4]; rat, in vivo
  Blood pressure in normotensive animals: has no effect on blood pressure in normotensive animals
Somatosensory neurons
  Effect of capsaicin: strongly decreased the effect of capsaicin
[5]
  Local effect of succinylcholine: entirely eliminated the local effect of succinylcholine
[6]; morphine 16 mg/kg s.c.
  Anesthetic action of morphine: antagonizes anesthetic action of morphine
[6]; morphine-addicted mice
  Morphine withdrawal symptoms: antagonizes withdrawal symptoms in morphine-addicted mice
[6]; propofol, thiopental, ketamine, fentanyl, dehydrobenzperidol
  Effect of anaesthetics: reduced the effect of both anaesthesia and catalepsy
[7]
  Consequence of severe hypercalcemia: counteracted the consequence of severe hypercalcemia
  Serum amylase: decreased the value of serum amylase
[8]; Randall-Selitto test
  Hyperalgesia: exhibits an anti-hyperalgesic effect in Randall-Selitto test
[8]; acetic acid, MgSO4
  Inflammatory and non-inflammatory pain: antagonized both inflammatory pain (acetic acid), and non-inflammatory pain (MgSO4)
[8]; carrageenan test in rats
  Pain threshold: increases pain threshold in carrageenan test in rats
[9]
  Protection against myocardial infarction and arrhythmias: protects against isoprenalina-myocardial infarction, and arrhythmias caused by methyldigoxin
[10]
  Neutropenia after cyclophosphamide: prevents the occurrence of neutropenia
macrophages
  Activity of macrophages: increased macrophage mobility, restoration of M/P ratio between mononuclear and polynuclear leukocytes
[11]
  Axonal regeneration: exhibited faster axonal regeneration
[12]
  Nerve damage in brain: consistently less nerve damage
Pain models
  Neuropathic pain: strongly reduces neuropathic pain
[13]
  MAPK responding to VEGF factor: acted antimitogenically by inhibiting mitogen-activated protein kinase (MAPK)
[14]; carrageenan, turpentine, cotton pellet
  Acute, non-specific inflammation: successfully antagonized several models of acute, non-specific inflammation
[14]; myeloperoxidase, leukotriene B4, thromboxane B2, in vitro and in vivo
  Release of inflammatory mediators: reduce the release of inflammatory mediators
[15]; after abdominal aorta anastomosis in rats
  Obstructive thrombus formation: prevents obstructive thrombus formation, at least for 24 h
[15]; given in the presence of already formed thrombosis and vascular obstruction
  Already formed obstructing thrombus: rapidly destroys already formed obstructing thrombus
Treadmill running tests
  Treadmill running performance: performance is improved
[16]
  Prolonged bleeding and thrombocytopenias: consistently counteracts prolonged bleeding and thrombocytopenias
Short bowel syndrome
  Weight gain: constant weight gain was observed
[17]
  Corticosteroid-failed wound healing: completely counteracts corticosteroid-failed wound healing
Adjuvant arthritis
  Time of treatment after which beneficiary effect is evident: 2 weeks
bull's sperm
  In vitro most effective bepecin dose: 20 ng/mL
bull's sperm; co-treatment immediately after thawing, compared with control
  Sperm motility: improved its motility
bull's sperm; treatment before freezing, compared with control
  Post-thaw sperm motility: improved the post-thaw motility at 37 °C
[18]; dextran and/or egg white i.v., bepecin 10 μg, 1 μg, 10 ng, 10 pg/kg, clomipramine 20 mg/kg, cimetidine 10 mg/kg alone
  Effect on anaphylactoid reactions: effectively both prevents anaphylactoid reactions and vascular collapse
[18]; with clomipramine (20 mg/kg) and cimetidine (10 mg/kg)
  Action of antihistaminic agents in combination: markedly improves the action of antihistaminic agents
[19]
  Collateral vessel presentation within vascular defect: collateral vessels with full interconnections forming a bridging network
Sphincter action
  Sphincter function: retain sphincter function in rats
[20]
  Ulcer appearance and healing: effectively inhibited the appearance of wounds and accelerated therapy of the existed ones in all models
Adhesion formation
  Formation of adhesions: reduces formation of adhesions
[21]
  Alcohol intoxication, withdrawal, gastric and liver lesions: prevented and inhibited the effect of alcohol acute intoxication
[22]
  Magnesium-sulfate disturbances: completely counteracted magnesium-sulfate disturbances
NO-system [23]
  NO-release in vitro: may cause “in vitro” NO-release
[24]; daily dose of 1 μg/kg of body weight, cats not preventively vaccinated
  Time to complete recovery: ≤ 10 days
[24]; in 30 min, 1 μg/kg s.c.
  Body temperature decrease: ≥ 1 °C
